Reference: PMC5320473
No constants are given. Whether binding was seen depends on the method and setting. Binding seen in cells or lysates may run through a third protein. Some entries that bind do so weakly or less than the wild type.

Protein sequences, listed by entry. Tags and fused reporters are not part of them.
UniProt Q61221: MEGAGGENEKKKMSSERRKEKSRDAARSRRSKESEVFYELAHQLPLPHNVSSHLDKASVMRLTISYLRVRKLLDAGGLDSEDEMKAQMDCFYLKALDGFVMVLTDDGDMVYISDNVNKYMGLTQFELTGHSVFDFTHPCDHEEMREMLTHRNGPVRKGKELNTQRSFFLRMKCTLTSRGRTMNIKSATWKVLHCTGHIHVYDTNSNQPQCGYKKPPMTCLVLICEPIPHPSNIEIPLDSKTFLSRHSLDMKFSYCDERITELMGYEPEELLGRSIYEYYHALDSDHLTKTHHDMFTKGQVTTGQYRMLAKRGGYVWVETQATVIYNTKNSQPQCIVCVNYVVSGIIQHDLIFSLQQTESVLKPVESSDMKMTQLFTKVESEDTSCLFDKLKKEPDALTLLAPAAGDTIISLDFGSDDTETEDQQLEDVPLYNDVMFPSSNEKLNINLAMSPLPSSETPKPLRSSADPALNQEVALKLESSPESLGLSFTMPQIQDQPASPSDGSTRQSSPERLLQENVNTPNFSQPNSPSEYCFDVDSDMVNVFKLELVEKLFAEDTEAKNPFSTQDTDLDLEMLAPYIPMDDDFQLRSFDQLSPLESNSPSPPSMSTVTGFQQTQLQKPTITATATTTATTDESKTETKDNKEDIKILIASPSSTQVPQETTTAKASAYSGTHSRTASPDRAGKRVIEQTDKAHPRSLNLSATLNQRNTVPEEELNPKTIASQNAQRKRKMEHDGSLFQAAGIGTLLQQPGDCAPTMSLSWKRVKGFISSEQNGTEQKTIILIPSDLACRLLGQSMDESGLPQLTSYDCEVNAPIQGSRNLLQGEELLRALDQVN
UniProt P53762: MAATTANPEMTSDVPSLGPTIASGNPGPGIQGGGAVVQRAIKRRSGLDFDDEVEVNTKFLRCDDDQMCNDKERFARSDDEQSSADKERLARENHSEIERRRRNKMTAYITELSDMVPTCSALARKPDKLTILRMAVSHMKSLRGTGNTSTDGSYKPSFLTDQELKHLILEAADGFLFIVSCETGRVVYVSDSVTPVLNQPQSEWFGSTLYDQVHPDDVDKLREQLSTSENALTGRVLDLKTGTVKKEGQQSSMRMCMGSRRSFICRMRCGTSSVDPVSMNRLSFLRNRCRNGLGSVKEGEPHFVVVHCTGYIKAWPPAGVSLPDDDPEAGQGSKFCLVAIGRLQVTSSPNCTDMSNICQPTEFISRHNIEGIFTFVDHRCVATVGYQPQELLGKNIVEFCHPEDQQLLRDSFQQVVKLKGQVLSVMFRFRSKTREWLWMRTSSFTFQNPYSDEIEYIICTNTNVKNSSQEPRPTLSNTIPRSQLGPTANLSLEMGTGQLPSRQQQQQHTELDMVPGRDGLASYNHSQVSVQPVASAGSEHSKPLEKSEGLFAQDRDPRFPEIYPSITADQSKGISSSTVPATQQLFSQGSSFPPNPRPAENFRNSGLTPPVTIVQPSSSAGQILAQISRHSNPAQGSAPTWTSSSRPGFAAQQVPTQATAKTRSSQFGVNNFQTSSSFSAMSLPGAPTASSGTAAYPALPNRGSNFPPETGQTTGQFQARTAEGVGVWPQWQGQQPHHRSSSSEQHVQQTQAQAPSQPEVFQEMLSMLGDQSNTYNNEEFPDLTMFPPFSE

Target: hypoxia inducible factor 1α (HIF-1α) (mouse (endogenous in MC3T3-E1)) (UniProt Q61221)
Assay: co-IP; hypoxic (1% O2) MC3T3-E1 cells treated 16 h with indicated concentrations of osmium complex 1 or chetomin; 30 μg lysate protein incubated 12 h with anti-HIF-1α magnetic beads; Western blot with anti-p300, anti-HIF-1α, anti-HIF-1β

## HIF-1β (from UniProt P53762 1-791)
  binding: binds
